PubChem BioAssay AID1259281 | Sanger Institute, 2017
Here is an unselected part of 794 reagents. Over the whole deposit, 22 (2.8%) got an active call. 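Calls rest on knock-down alone only; drug synergy scores play no part in them.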 Entries without a mark were called inactive. Further read-outs or replicates are left out here. Not given: the amount of reagent, the time to read-out.

- Screen: 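Screen kinases and frequently colorectal-mutated genes for lethal knock-downs and drug partners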 (primary screen)
- Cells: human COLO678 colorectal cancer cell line
- Reagents: siRNA pool against human genes
- Conditions: anchor drugs at fixed doses: BYL719 1 µM, cetuximab 5 µg/ml or trametinib 10 nM; DMSO vehicle for the siRNA-alone arm
- Measurement: 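Surviving cells scaled to non-targeting siRNA control as replicate means; robust z-score for knock-down alone; synergy scores weigh knock-down with drug against the predicted combined effect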
- Direction: robust z-score, siRNA alone: higher = more viable cells; strongly negative means essential
- Active means: 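Essential (knock-down alone) when the siRNA-alone robust z-score is below -3; otherwise no change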
- Calls: active = essential (knock-down alone); inactive = no change

For ZAP70 (zeta chain of T cell receptor associated protein kinase 70), what was measured?
robust z-score, siRNA alone: -0.967

For ABL1 (ABL proto-oncogene 1, non-receptor tyrosine kinase), what was measured?
robust z-score, siRNA alone: 0.473

What is on record for STK3 (serine/threonine kinase 3)?
robust z-score, siRNA alone: 0.473

Which result is listed for PKN3 (protein kinase N3)?
robust z-score, siRNA alone: -0.814

What did the screen give for MAP3K19 (mitogen-activated protein kinase kinase kinase 19)?
robust z-score, siRNA alone: -2.18

For PRKAG2 (protein kinase AMP-activated non-catalytic subunit gamma 2), what was measured?
robust z-score, siRNA alone: 0.253

What is on record for MAP3K14 (mitogen-activated protein kinase kinase kinase 14)?
robust z-score, siRNA alone: 0.473

How did the screen score STYK1 (STY kinase 1)?
robust z-score, siRNA alone: 0.473

For AK2 (adenylate kinase 2), what does the deposit list?
robust z-score, siRNA alone: 0.473

With LTK (leukocyte receptor tyrosine kinase), how do the results read?
robust z-score, siRNA alone: -0.366

For HSPB8 (heat shock protein family B (small) member 8), how do the results read?
robust z-score, siRNA alone: 0.473

What did the screen give for UCK1 (uridine-cytidine kinase 1)?
robust z-score, siRNA alone: 0.473

Targets above whose target name begins with P or p (2):
PKN3 (protein kinase N3) | robust z-score, siRNA alone = -0.814
PRKAG2 (protein kinase AMP-activated non-catalytic subunit gamma 2) | robust z-score, siRNA alone = 0.253
